PubChem BioAssay AID1159578 | Peter MacCallum Cancer Centre | 2015

Screen: 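Knock-downs that alter how fast lymphatic endothelial cells migrate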 (primary screen)
System: human lymphatic endothelial cells
Reagent: siRNA pool against human genes, 40 nM
Duration: 48 h after transfection
Detection: 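High-content imaging of dye-stained cells in a scratch assay measures filled wound area and nuclei per well; duplicate means given as ratio to mock and robust z-score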
Direction: migration robust z-score: higher = faster migration into the scratch; migration relative to mock: higher = more scratch area covered than mock; nuclei per well: higher = more cells in the well
Hit rule: 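Pools averaging fewer than 3300 nuclei are never called; remaining pools count as changed when migration robust z lies outside -2 to 2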
Calls: active = migration changed; inactive = no migration change, or too few cells
Shown is an unselected part of about 18,000 deposited reagents. Of all reagents, about 1,030 (5.7%) were called active. 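Inactive calls also include pools with fewer than 3300 nuclei, whose migration was not assessed.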 Raw values are not corrected between plates.

gene	migration robust z-score	migration class with cell-count check	migration relative to mock	nuclei per well, duplicate mean	activity call
ELL	0.58	migration z between -2 and 2; enough cells	1.04	4776	inactive
KIT	0.83	migration z between -2 and 2; enough cells	0.97	6857	inactive
STX11	-0.36	migration z between -2 and 2; enough cells	0.8	6278	inactive
PIGW	-0.14	migration z between -2 and 2; enough cells	0.85	5750	inactive
TOM1	-2.08	migration z below -2; enough cells	0.4	5044	active
MOB1A	1.74	migration z between -2 and 2; enough cells	1.34	7244	inactive
MEIOB	-1.06	migration z between -2 and 2; enough cells	0.61	5158	inactive
CUL2	-1.35	migration z between -2 and 2; enough cells	0.54	5220	inactive
MAB21L4	0.16	migration z between -2 and 2; enough cells	0.92	6800	inactive
OR51I1	-0.48	migration z between -2 and 2; enough cells	0.76	6650	inactive
ITPA	-0.64	migration z between -2 and 2; enough cells	0.72	6247	inactive
DOT1L	-3.37	migration z below -2; enough cells	0.16	4440	active
TM4SF1	-0.6	migration z between -2 and 2; enough cells	0.73	6322	inactive
CEACAM4	-0.72	migration z between -2 and 2; enough cells	0.7	5088	inactive
PNISR	0.94	migration z between -2 and 2; enough cells	1.12	5488	inactive
FAM180A	0.86	migration z between -2 and 2; enough cells	1.11	5839	inactive
CLTCL1	-0.36	migration z between -2 and 2; enough cells	0.79	6248	inactive
HEXD	-0.66	migration z between -2 and 2; enough cells	0.72	6012	inactive
PNPLA8	0.06	migration z between -2 and 2; enough cells	0.9	7200	inactive
MRPL19	0.17	migration z between -2 and 2; enough cells	0.92	6524	inactive
FAM169BP	1.06	migration z between -2 and 2; enough cells	1.17	6017	inactive
SERPINI2	-1.5	migration z between -2 and 2; enough cells	0.52	5078	inactive
NDST4	0.68	migration z between -2 and 2; enough cells	0.94	5840	inactive
TREML1	-0.49	migration z between -2 and 2; enough cells	0.76	4087	inactive
DMAC2L	0.66	migration z between -2 and 2; enough cells	1.06	5610	inactive
LRRTM4	-0.87	migration z between -2 and 2; enough cells	0.65	4933	inactive
PRNT	0.38	migration z between -2 and 2; enough cells	0.99	5082	inactive
WDR37	0.25	migration z between -2 and 2; enough cells	0.95	5455	inactive
MAP4K4	0.44	migration z between -2 and 2; enough cells	0.89	5118	inactive
TOE1	-0.4	migration z between -2 and 2; enough cells	0.78	4753	inactive
TACSTD2	0.28	migration z between -2 and 2; enough cells	0.96	4597	inactive
LRRC2	1.03	migration z between -2 and 2; enough cells	1.16	5126	inactive
CNST	-0.14	migration z between -2 and 2; enough cells	0.85	7043	inactive
UFC1	-0.76	migration z between -2 and 2; enough cells	0.66	3916	inactive
ISCA2	0.76	migration z between -2 and 2; enough cells	1.08	5812	inactive
NEK8	-4.54	under 3300 nuclei; migration not judged	-0.07	2244	inactive
PCYT2	-0.15	migration z between -2 and 2; enough cells	0.77	5962	inactive
MAGEL2	1.02	migration z between -2 and 2; enough cells	1.15	6402	inactive
SH3TC2	-0.24	migration z between -2 and 2; enough cells	0.82	4654	inactive

Copied from the list.
ISCA2, migration robust z-score → 0.76
NDST4, migration relative to mock = 0.94
